No constants are given. Whether binding was seen depends on the method and setting. Sequences can lack the tags named with a protein.
Biological target: T1, Human aquaglyceroporin 3 (AQP3), full-length, C-terminal poly-histidine tag (human), Q92482
T1 chain: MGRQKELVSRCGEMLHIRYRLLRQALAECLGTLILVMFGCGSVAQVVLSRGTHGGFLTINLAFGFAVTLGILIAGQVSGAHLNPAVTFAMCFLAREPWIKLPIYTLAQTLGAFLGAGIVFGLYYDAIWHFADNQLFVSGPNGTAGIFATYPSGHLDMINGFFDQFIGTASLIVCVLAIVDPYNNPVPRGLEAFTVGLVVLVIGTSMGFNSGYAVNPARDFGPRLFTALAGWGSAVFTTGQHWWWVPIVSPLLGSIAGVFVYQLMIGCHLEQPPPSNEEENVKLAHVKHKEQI
Assay: cryo-EM 2D class averages; AQP7 and AQP3 samples in GDN flash frozen on C-flat Cu R1.2/1.3 grids, same conditions as for the Quantifoil grids; step looked at: tetramer with tetramer (dimer of tetramers); both purified
Conditions: remark: other sources report otherwise

B1: Human aquaglyceroporin 3 (AQP3), full-length, C-terminal poly-histidine tag, Q92482 1-292 (protein)
chain: MGRQKELVSRCGEMLHIRYRLLRQALAECLGTLILVMFGCGSVAQVVLSRGTHGGFLTINLAFGFAVTLGILIAGQVSGAHLNPAVTFAMCFLAREPWIKLPIYTLAQTLGAFLGAGIVFGLYYDAIWHFADNQLFVSGPNGTAGIFATYPSGHLDMINGFFDQFIGTASLIVCVLAIVDPYNNPVPRGLEAFTVGLVVLVIGTSMGFNSGYAVNPARDFGPRLFTALAGWGSAVFTTGQHWWWVPIVSPLLGSIAGVFVYQLMIGCHLEQPPPSNEEENVKLAHVKHKEQI
For B1, the binding was “no binding”.
